Measured values as given in the supplement of paper PMC10849652.
Some of the results follow.

Chains of the proteins cited; added tags and fusions are not shown. Lines headed by an entry give the natural chain unless they say otherwise; changes in a name come on top.
UniProt Q5T7W7: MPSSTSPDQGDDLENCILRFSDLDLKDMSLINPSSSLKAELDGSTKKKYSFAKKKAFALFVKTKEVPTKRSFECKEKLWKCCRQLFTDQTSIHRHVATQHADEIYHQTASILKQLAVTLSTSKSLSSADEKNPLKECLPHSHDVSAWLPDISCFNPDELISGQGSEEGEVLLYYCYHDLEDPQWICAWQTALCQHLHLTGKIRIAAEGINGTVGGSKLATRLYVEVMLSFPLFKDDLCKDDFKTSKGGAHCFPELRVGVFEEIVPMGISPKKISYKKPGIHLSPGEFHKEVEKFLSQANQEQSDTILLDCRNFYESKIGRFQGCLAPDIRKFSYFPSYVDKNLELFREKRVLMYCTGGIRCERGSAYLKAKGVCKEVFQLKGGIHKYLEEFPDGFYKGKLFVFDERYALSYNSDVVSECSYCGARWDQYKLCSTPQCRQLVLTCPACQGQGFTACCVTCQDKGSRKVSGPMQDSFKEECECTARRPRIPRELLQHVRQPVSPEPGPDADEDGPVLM
UniProt Q99576: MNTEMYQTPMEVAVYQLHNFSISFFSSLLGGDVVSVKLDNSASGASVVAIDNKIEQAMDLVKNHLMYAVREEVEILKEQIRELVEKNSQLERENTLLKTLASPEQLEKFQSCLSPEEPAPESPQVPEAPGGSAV
UniProt Q96AE7: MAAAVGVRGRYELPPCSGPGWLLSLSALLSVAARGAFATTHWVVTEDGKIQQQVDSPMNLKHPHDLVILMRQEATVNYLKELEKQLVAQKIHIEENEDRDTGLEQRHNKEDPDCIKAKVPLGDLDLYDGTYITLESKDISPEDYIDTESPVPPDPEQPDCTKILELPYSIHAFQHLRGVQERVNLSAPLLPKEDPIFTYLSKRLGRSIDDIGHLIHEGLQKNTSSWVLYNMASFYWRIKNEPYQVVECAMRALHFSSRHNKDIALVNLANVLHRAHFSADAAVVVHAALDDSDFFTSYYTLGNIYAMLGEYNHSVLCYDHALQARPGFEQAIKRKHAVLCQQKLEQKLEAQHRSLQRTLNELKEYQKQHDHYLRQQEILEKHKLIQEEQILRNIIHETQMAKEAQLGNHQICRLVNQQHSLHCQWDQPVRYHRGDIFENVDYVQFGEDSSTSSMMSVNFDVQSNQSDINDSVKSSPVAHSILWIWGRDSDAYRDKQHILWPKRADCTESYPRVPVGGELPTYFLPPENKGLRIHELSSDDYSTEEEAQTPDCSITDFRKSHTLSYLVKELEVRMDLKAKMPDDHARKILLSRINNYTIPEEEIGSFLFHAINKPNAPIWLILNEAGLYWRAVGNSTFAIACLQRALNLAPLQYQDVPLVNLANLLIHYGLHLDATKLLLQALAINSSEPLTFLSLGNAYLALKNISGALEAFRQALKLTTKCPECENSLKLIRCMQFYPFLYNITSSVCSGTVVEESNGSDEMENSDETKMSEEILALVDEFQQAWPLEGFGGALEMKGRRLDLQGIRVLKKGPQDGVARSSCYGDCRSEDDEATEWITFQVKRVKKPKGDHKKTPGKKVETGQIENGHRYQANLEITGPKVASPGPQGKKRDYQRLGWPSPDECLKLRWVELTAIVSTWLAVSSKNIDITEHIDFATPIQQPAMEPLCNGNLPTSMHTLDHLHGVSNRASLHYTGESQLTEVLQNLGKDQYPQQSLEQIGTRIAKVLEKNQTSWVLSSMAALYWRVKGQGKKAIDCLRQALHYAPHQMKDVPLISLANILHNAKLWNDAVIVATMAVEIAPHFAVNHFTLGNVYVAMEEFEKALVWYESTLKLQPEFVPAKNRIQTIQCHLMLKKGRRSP
UniProt Q15361: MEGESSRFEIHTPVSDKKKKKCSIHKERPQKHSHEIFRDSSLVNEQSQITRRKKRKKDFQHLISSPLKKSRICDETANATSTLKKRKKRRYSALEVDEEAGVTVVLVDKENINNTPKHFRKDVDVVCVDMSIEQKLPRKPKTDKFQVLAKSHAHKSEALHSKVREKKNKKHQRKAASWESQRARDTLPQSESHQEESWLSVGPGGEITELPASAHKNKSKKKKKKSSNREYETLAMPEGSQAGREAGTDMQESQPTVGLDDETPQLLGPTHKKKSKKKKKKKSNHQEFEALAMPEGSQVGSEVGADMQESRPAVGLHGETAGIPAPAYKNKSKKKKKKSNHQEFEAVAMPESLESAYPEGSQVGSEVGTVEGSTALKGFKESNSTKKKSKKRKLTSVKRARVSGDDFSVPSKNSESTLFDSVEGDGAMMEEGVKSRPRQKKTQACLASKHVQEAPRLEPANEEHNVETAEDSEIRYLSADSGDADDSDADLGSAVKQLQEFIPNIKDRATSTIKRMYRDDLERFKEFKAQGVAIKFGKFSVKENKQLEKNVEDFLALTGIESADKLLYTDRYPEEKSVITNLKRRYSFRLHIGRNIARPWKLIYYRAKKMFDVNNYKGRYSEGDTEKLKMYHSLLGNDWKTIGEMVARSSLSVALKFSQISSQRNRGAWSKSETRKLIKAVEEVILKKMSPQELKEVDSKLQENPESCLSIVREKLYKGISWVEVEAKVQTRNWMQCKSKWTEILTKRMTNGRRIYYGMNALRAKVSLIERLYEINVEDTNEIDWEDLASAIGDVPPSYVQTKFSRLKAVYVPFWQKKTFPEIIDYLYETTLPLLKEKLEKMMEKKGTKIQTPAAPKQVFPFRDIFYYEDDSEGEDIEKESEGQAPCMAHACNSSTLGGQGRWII
UniProt O00463: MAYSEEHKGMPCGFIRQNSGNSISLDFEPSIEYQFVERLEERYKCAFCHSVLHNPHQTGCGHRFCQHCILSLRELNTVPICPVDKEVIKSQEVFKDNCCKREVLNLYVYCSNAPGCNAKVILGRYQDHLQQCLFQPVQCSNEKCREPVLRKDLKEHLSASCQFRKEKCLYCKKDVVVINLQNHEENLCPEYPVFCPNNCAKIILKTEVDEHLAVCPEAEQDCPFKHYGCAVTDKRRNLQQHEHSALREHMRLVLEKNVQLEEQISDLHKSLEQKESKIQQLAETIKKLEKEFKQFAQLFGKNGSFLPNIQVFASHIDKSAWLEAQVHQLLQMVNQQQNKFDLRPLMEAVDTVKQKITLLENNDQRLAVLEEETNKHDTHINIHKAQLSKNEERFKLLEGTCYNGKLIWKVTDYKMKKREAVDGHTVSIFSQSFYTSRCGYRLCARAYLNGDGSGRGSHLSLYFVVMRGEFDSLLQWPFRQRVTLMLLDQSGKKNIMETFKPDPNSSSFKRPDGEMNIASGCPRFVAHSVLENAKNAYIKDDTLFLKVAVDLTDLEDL
UniProt Q9UJT2: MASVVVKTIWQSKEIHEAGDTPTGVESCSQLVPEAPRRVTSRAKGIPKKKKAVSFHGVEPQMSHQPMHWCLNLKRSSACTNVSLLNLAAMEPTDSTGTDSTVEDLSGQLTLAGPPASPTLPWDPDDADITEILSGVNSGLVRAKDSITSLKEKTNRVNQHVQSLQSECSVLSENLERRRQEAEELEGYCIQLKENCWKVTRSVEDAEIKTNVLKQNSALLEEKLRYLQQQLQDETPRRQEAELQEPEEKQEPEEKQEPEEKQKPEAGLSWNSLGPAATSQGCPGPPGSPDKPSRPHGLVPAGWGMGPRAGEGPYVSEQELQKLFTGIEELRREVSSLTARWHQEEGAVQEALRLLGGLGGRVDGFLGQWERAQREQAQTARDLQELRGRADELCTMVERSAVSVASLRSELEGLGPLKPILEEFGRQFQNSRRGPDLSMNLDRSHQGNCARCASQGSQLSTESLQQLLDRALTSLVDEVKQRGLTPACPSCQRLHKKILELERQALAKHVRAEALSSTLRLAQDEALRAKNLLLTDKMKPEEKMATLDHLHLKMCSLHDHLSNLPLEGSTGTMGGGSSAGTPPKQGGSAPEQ
UniProt P53804: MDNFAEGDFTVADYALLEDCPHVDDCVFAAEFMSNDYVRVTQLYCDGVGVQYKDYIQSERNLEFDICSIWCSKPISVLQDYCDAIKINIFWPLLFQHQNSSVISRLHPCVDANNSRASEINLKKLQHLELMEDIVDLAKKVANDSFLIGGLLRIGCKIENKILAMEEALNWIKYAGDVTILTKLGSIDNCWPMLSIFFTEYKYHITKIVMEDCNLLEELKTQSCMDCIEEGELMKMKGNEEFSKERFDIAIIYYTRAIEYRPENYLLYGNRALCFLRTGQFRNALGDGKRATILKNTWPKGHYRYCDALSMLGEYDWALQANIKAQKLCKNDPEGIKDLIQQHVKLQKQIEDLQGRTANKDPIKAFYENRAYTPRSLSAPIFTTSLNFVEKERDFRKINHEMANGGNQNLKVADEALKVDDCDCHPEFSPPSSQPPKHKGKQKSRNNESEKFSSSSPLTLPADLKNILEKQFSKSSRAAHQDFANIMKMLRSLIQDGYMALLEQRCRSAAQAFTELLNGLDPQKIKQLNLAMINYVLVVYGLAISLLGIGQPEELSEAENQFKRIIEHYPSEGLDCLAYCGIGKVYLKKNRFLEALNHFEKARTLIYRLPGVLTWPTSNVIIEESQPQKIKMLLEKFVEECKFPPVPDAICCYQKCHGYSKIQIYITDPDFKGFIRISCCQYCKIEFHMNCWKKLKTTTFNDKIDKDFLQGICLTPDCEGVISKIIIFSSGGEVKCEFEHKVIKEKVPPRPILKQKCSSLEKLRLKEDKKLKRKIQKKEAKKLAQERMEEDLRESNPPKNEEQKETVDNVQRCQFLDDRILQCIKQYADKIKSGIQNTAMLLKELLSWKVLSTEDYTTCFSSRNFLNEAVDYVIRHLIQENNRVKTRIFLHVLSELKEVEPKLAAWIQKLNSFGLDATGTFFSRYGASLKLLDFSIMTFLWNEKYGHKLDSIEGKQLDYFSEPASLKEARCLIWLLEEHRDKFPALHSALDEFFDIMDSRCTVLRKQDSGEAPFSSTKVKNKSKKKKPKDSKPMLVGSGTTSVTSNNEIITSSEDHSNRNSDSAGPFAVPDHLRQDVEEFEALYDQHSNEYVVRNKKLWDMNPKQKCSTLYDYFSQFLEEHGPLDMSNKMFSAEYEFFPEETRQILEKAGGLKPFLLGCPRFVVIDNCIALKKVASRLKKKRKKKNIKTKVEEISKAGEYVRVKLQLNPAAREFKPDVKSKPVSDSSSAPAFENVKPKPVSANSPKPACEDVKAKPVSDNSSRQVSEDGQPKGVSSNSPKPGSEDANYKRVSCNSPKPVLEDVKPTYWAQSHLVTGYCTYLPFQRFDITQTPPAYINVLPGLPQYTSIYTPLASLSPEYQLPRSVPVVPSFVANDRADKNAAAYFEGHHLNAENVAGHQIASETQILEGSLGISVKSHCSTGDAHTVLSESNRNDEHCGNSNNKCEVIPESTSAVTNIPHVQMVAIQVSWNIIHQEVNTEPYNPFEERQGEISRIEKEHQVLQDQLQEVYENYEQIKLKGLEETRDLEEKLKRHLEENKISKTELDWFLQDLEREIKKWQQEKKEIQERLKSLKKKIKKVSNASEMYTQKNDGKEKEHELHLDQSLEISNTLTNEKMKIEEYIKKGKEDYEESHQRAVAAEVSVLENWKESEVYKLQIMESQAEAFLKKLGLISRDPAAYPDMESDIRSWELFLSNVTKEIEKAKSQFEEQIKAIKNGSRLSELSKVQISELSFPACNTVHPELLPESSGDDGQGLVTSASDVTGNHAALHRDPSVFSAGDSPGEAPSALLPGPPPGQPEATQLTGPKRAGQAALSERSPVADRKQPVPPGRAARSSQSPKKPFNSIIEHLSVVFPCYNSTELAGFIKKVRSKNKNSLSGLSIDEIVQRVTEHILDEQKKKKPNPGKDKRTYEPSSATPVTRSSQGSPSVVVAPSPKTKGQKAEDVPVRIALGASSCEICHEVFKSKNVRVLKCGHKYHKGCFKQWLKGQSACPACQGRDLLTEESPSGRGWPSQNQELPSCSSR
UniProt Q8N4P2: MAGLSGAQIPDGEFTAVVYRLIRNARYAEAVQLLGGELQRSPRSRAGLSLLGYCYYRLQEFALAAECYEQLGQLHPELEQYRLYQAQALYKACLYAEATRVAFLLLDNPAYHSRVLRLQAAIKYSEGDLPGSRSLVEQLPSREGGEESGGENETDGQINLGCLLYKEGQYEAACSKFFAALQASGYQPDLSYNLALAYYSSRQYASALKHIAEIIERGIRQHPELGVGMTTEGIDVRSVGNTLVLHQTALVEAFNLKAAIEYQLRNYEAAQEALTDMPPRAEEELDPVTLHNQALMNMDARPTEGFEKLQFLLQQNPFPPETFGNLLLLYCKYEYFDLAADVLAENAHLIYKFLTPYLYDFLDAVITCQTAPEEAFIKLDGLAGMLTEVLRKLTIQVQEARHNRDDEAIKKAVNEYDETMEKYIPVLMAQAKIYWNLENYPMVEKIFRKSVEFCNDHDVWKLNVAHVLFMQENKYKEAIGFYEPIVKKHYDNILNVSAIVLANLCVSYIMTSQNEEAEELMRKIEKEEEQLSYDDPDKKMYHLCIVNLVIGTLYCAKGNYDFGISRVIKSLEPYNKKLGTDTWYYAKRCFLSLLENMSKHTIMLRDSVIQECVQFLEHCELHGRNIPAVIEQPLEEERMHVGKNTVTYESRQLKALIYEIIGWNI

Experiments:
Experiment in all cases: log2 fold change, soluble protein after heating vs DMSO (PISA); higher = thermal stabilisation; K562 lysate, 10 uM; active = over 0.2 and 3.5 SD of the protein, either way, in both replicates (recomputed)
vemurafenib = compound: CCCS(=O)(=O)Nc1ccc(F)c(C(=O)c2c[nH]c3ncc(-c4ccc(Cl)cc4)cc23)c1F [vemurafenib]
Method in brief: (§1)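 Thermal stability, expressed as log-two fold change relative to solvent controls, is given from duplicates. Crude K562 extract in PBS pH 7.4 with 1 mM MgCl2, at 1 mg/mL protein, was treated with 10 μM compound for 30 min and heated in aliquots for 3 min across 48°C-58°C. After pooling, adjustment to 0.5% NP-40 at 4°C and centrifugation at 21,000xg for 90 min, supernatant protein was measured by TMTpro 16plex LC-MS/MS with channel sums equalised.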

[1] = compound: CCCS(=O)(=O)Nc1ccc(F)c(C(=O)c2c[nH]c3ncc(Cl)cc23)c1F
Method in brief: as §1

barasertib = compound: CCN(CCCOc1ccc2c(Nc3cc(CC(=O)Nc4cccc(F)c4)[nH]n3)ncnc2c1)CCOP(=O)(O)O [barasertib]
Method in brief: as §1

[2] = compound: CC[C@@H]1C(=O)N(C)c2cnc(Nc3ccc(C(=O)NC4CCN(C)CC4)cc3OC)nc2N1C1CCCC1
Method in brief: as §1

volasertib = compound: CC[C@@H]1C(=O)N(C)c2cnc(Nc3ccc(C(=O)N[C@H]4CC[C@H](N5CCN(CC6CC6)CC5)CC4)cc3OC)nc2N1C(C)C [volasertib]
Method in brief: as §1

[3] = compound: CCn1c(C(=O)N(C2CC2)C2CC2)cc2c3c(ncn3C)c(Nc3cc(C)n(C)n3)nc21
Method in brief: as §1

[4] = compound: CCn1cc(-c2ccnc3[nH]c(-c4cccc(CN(C)C)c4)cc23)c(-c2ccc(NC(=O)N(C)C)cc2)n1
Method in brief: as §1

[5] = compound: CN1CCC(CNc2ccc3ncc(-c4cccc(OC(F)(F)F)c4)n3n2)CC1
Method in brief: as §1

saracatinib = compound: CN1CCN(CCOc2cc(OC3CCOCC3)c3c(Nc4c(Cl)ccc5c4OCO5)ncnc3c2)CC1 [saracatinib]
Method in brief: as §1

sotrastaurin = compound: CN1CCN(c2nc(C3=C(c4c[nH]c5ccccc45)C(=O)NC3=O)c3ccccc3n2)CC1 [sotrastaurin]
Method in brief: as §1

Measured: log2 fold change

TRIM56 (UniProt Q9BRZ2)
inactive: vemurafenib 0.026 | [1] 0.026 | barasertib -0.039 | [2] 0.006 | volasertib -0.029 | [3] -0.04 | [4] 0.227 | [5] -0.102 | saracatinib 0.031 | sotrastaurin -0.019

TRIM41 (UniProt Q8WV44)
inactive: vemurafenib -0.059 | [1] -0.092 | [2] 0.017 | volasertib -0.075 | [4] 0.16 | [5] -0.141 | saracatinib -0.118 | sotrastaurin 0.052

TRIM27 (UniProt P14373)
inactive: vemurafenib 0.191 | barasertib -0.014 | [3] 0 | [4] 0.02 | [5] 0.007 | sotrastaurin -0.02

TRUB2 (UniProt O95900)
inactive: vemurafenib 0.061 | [2] -0.003 | [3] -0.026 | [4] 0.045 | [5] -0.017 | saracatinib 0.044

TSTD2 (UniProt Q5T7W7)
inactive: vemurafenib -0.257 | [1] -0.029 | barasertib 0.164 | volasertib -0.046 | [3] -0.068 | [4] 0.054 | [5] -0.009 | saracatinib -0.048

TRIO (UniProt O75962)
inactive: vemurafenib 0.064 | [1] 0.052 | barasertib 0.034 | [2] -0.005 | volasertib -0.006 | [4] -0.071 | [5] -0.038 | saracatinib -0.023 | sotrastaurin 0.043

TTLL12 (UniProt V9GY16)
inactive: vemurafenib 0.261 | barasertib 0.102 | [2] 0.227 | [3] -0.465 | [4] -0.393 | [5] 0.133 | sotrastaurin -0.175

TRPT1 isoform 4 (UniProt Q86TN4)
inactive: vemurafenib -0.102 | [1] 0.128 | barasertib -0.366 | volasertib 0.123 | [3] -0.044 | [4] 0.041 | [5] -0.01 | saracatinib 0.005 | sotrastaurin 0.023

TTC37 (UniProt Q6PGP7)
inactive: vemurafenib 0.053 | [1] -0.068 | barasertib 0.018 | volasertib 0.011 | [3] 0.045 | saracatinib 0.013 | sotrastaurin -0.019

TRPM4 (UniProt Q8TD43)
inactive: barasertib 0.456 | [3] 0.066 | [4] -0.598 | [5] 0.156 | saracatinib 0.044 | sotrastaurin 0.11

TSC22D3 isoform 3 (UniProt Q99576)
inactive: [3] -0.272 | sotrastaurin -0.132

TTC17 isoform 2 (UniProt Q96AE7)
inactive: [4] -0.064 | [5] 0.026

TRAPPC2L (UniProt H3BQQ8)
inactive: barasertib 0.176

TTF1 (UniProt Q15361)
inactive: [2] 0.087

TSC22D1 isoform 2 (UniProt Q15714)
inactive: [2] -0.133 | [3] 0.083 | sotrastaurin 0.09

TRIM16 (UniProt O95361)
inactive: [2] -0.012 | saracatinib 0.029

TRAF7 (UniProt Q6Q0C0)
inactive: vemurafenib -0.07 | [2] 0.053 | [3] 0.012 | [4] -0.065 | [5] 0.191 | saracatinib 0.132 | sotrastaurin -0.044

TRAM2 (UniProt Q15035)
inactive: [1] 0.237 | volasertib -0.2 | [3] 0.123 | sotrastaurin -0.107

TTC26
inactive: [2] -0.025 | [3] 0.152 | [4] 0.104 | [5] -0.096 | saracatinib -0.018

TRPS1 isoform 2 (UniProt Q9UHF7)
inactive: [1] -0.214 | volasertib -0.33 | [4] 0.206 | [5] 0.161 | saracatinib 0.249 | sotrastaurin 0.291

TRIM37 (UniProt O94972)
inactive: [2] -0.054 | [3] -0.055 | saracatinib -0.065 | sotrastaurin 0.027

TSPYL2 (UniProt Q9H2G4)
inactive: [2] 0.051 | [4] -0.028 | [5] 0.037 | saracatinib 0.072 | sotrastaurin 0.099

TRAF1 (UniProt Q13077)
inactive: [3] -0.124

TSPYL6 (UniProt Q8N831)
inactive: [3] 0.075 | saracatinib -0.022

TRIM68 (UniProt Q6AZZ1)
inactive: [2] -0.111 | sotrastaurin 0.066

TRMT44 (UniProt Q8IYL2)
inactive: sotrastaurin 0.067

TRMT10B (UniProt Q6PF06)
inactive: [3] 0.196 | [4] -0.023 | [5] 0.077

TSPAN31 (UniProt Q12999)
inactive: vemurafenib 0.043 | saracatinib -0.086 | sotrastaurin 0.086

TRAF5 isoform 2 (UniProt O00463)
inactive: [2] -0.052 | [3] -0.318

TSKS (UniProt Q9UJT2)
inactive: vemurafenib -0.078 | [2] 0.068 | [3] -0.062 | [4] 0.191 | [5] -0.142 | saracatinib -0.021 | sotrastaurin -0.016

TRMT2B (UniProt Q96GJ1)
inactive: [1] 0.089 | barasertib 0.095 | volasertib -0.038 | [3] 0.001 | [4] 0.013 | [5] -0.153 | saracatinib 0.06 | sotrastaurin -0.04

TRAF3IP2 (UniProt O43734)
inactive: vemurafenib -0.163 | [3] -0.127 | [4] 0.095 | [5] 0.032

TSPAN4 (UniProt O14817)
inactive: vemurafenib -0.108 | [2] 0.094 | [3] -0.13 | sotrastaurin 0.068

TTC3 (UniProt P53804)
inactive: [3] 0.201 | saracatinib -0.041

TTBK2 (UniProt Q6IQ55)
inactive: [2] -0.143 | sotrastaurin -0.093

TTLL4 (UniProt Q14679)
inactive: [3] 0.099

TTC30B (UniProt Q8N4P2)
inactive: vemurafenib -0.092 | [2] 0.11 | [4] -0.062 | [5] -0.168 | sotrastaurin 0.004

TRIM67 (UniProt Q6ZTA4)
inactive: [1] -0.089 | [2] -0.076 | volasertib 0.001 | [3] 0.047

TRIQK (UniProt Q629K1)
inactive: [1] -0.018 | barasertib 0.016 | [2] 0.153 | volasertib 0.018 | [3] 0.045 | saracatinib 0.123 | sotrastaurin -0.049

Quoted from the results shown (three entries):
TTLL4 (UniProt Q14679)
inactive: [3] 0.099

TTC30B (UniProt Q8N4P2)
inactive: vemurafenib -0.092 | [2] 0.11 | [4] -0.062 | [5] -0.168 | sotrastaurin 0.004

TRIM67 (UniProt Q6ZTA4)
inactive: [1] -0.089 | [2] -0.076 | volasertib 0.001 | [3] 0.047

The list goes on.

TRIB3 (UniProt Q96RU7)
inactive: [2] 0.202 | saracatinib 0.099

TRIM26 (UniProt Q12899)
inactive: [1] 0.04 | volasertib 0.156 | [3] 0.077 | sotrastaurin 0.043

TSPYL1 (UniProt Q9H0U9)
inactive: [1] 0.047 | barasertib 0.073 | volasertib 0.014 | [3] -0.043 | [4] -0.103 | [5] 0.022 | saracatinib -0.012 | sotrastaurin 0.152
